Source: patent US20180037651A1
These are yes or no findings as the source states them, for the method shown. Some binding calls cover weakened binding; strength is not graded here.

The chains behind the UniProt entries cited, without tags or fusion partners. Where a name states a change or a piece, a line headed by the entry shows the natural chain unless it says otherwise.
UniProt Q9JIL6: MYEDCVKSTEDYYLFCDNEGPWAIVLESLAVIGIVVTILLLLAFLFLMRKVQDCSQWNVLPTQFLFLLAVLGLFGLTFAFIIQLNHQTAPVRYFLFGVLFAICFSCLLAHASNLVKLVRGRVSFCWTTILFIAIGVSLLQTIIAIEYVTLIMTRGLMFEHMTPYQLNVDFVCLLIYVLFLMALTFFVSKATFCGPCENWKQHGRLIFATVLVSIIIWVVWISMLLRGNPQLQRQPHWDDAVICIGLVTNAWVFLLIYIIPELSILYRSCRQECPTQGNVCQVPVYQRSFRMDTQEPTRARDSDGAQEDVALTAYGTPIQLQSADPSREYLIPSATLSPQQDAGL

Target: murine GPRC5D (murine) (UniProt Q9JIL6)
Assay: FACS, murine GPRC5D

binding: binds
B1: GCDB72 (bispecific antibody, IgG4, V domains shown)
VH 1: QVQLVQSGAEVKKPGASVKVSCKASGYSFTGYTMNWVRQAPGQGLEWMGLINPYNSDTNYAQKLQGRVTMTTDTSTSTAYMELRSLRSDDTAVYYCARVALRVALDYWGQGTLVTVSS
VL 1: DIQMTQSPSSLSASVGDRVTITCKASQNVATHVGWYQQKPGKAPKRLIYSASYRYSGVPSRFSGSGSGTEFTLTISNLQPEDFATYYCQQYNRYPYTFGQGTKLEIK
VH 2: EVQLVESGGGLVQPGGSLRLSCAASGFTFNTYAMNWVRQAPGKGLEWVARIRSKYNNYATYYAASVKGRFTISRDDSKNSLYLQMNSLKTEDTAVYYCARHGNFGNSYVSWFAYWGQGTLVTVSS
VL 2: QTVVTQEPSLTVSPGGTVTLTCRSSTGAVTTSNYANWVQQKPGQAPRGLIGGTNKRAPGTPARFSGSLLGGKAALTLSGVQPEDEAEYYCALWYSNLWVFGGGTKLTVL
